Source: patent publication US20230287109A1
Results are given in words; binding and its absence hold for the method and conditions named. Some binding calls cover weakened binding; strength is not graded here.

Amino acid sequences for entries named in this document (tags omitted). Residues count along the entry.
UniProt O15123, residues 19-496: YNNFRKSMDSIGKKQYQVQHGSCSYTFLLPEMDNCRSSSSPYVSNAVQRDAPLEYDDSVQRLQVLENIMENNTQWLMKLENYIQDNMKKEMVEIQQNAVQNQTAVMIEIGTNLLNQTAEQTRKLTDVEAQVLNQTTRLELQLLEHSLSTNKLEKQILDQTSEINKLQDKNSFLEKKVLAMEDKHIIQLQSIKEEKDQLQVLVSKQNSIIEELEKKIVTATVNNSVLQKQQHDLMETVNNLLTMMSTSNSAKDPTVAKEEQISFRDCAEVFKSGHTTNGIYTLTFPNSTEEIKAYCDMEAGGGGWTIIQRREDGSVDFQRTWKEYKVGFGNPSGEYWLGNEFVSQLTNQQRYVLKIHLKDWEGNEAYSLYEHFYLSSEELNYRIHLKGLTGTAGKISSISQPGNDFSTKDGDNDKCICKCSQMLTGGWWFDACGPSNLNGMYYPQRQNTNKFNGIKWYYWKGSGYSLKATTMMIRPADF
UniProt Q02763, residues 23-745: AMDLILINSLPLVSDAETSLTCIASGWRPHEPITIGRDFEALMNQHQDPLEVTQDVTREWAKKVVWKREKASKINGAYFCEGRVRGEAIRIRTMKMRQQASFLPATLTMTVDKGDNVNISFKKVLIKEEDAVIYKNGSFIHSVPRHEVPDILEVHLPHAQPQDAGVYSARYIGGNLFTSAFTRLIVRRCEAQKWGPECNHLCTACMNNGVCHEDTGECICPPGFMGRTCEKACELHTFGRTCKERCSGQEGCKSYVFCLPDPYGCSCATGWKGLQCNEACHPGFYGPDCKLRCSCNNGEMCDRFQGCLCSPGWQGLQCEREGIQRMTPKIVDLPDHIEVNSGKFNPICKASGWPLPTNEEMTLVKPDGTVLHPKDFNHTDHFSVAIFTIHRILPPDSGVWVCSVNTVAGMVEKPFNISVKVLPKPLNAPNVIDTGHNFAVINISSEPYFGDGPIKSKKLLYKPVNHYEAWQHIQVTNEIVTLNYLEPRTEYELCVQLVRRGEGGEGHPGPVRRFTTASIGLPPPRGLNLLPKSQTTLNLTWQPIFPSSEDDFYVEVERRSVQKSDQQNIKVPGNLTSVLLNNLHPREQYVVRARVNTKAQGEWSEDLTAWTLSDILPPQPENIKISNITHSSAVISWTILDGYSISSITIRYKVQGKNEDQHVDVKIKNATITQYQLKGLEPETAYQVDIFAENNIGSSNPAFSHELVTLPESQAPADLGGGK

Columns and labels:
[1] = molecular target: Recombinant human full-length Ang2 (human) (UniProt O15123); assay: SPR, Ang2 on the chip (surface label 3-Ang2), first of three sequential injections
[2] = molecular target: Recombinant human full-length Ang2 (human) (UniProt O15123); assay: SPR (BIACORE 3000), Ang2 captured on CM5, dimeric Tie2 100 nM injected first
[3] = molecular target: Recombinant human full-length Ang2 (human) (UniProt O15123); assay: SPR, Ang2 captured on CM5, human Tie2 injected

- binding [1]: binds
- binding [2]: binds
- binding [3]: binds
Substance: human dimeric form of Tie2 (Example 8) (from UniProt Q02763 23-745) (receptor)
